From the supplement of paper PMC12823440, “Inhibitors supercharge kinase turnover through native proteolytic circuits” (Nature, 2025)
Counter-ions that a name gives are not always drawn. Some of the results follow. Hit calls seldom repeat between salt and free forms of one compound.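 Kinases were expressed as nanoluciferase fusions in K562 cells and luminescence was read every 4 h between 2 and 18 h as percent of control, DMSO set to 100% and a positive control to 0%. A time point counts as decreased when the signal drops significantly (2 sigma). The hit call is the authors' own, does not follow from the count of time points alone, and its rule is not shown.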

Protein sequences, listed by entry. Tags and fused reporters are not part of them. Lines headed by an entry give the natural chain unless they say otherwise; changes in a name come on top.
UniProt P48729: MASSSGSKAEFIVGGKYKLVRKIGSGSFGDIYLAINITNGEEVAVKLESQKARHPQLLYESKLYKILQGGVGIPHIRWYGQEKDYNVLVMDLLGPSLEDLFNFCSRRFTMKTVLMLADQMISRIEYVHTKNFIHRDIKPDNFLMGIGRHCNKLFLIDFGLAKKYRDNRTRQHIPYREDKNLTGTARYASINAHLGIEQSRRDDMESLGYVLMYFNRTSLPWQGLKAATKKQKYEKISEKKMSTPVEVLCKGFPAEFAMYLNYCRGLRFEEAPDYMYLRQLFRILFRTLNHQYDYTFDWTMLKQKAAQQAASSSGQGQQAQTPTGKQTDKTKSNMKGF
UniProt P48730: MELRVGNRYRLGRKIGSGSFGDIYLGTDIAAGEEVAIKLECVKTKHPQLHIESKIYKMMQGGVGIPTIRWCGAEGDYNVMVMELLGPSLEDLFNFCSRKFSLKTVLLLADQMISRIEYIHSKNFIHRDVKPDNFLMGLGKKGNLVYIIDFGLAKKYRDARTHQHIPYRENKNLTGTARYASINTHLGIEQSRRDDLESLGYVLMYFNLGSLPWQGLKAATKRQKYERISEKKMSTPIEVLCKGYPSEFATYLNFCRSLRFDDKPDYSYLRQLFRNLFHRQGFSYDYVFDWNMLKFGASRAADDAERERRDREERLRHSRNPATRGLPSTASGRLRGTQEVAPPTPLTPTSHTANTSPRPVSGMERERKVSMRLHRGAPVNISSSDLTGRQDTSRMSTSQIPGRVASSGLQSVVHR
UniProt Q08345: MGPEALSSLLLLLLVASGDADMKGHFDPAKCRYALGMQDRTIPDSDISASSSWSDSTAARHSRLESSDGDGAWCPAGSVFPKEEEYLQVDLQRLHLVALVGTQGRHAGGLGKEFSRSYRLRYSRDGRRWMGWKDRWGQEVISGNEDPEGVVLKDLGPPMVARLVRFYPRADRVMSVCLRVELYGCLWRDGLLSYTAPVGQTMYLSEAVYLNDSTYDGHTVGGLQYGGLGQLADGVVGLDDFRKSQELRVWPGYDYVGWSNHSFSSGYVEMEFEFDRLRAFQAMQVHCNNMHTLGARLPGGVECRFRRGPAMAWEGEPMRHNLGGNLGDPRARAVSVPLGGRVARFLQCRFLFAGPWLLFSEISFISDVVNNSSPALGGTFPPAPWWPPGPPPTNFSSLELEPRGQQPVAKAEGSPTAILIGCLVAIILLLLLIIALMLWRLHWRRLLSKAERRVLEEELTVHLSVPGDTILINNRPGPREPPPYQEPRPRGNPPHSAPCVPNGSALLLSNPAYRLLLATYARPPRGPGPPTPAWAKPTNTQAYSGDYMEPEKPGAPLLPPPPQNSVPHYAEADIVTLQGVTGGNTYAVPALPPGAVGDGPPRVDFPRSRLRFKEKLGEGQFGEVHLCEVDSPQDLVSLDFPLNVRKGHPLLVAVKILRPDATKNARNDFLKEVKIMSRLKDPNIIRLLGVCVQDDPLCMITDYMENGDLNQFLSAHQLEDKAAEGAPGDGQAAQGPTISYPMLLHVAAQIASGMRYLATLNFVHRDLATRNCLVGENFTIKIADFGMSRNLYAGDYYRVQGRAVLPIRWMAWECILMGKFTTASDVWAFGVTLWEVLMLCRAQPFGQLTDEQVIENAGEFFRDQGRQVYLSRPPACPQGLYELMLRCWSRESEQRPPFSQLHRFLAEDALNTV
UniProt Q9Y463, whole entry, looked up: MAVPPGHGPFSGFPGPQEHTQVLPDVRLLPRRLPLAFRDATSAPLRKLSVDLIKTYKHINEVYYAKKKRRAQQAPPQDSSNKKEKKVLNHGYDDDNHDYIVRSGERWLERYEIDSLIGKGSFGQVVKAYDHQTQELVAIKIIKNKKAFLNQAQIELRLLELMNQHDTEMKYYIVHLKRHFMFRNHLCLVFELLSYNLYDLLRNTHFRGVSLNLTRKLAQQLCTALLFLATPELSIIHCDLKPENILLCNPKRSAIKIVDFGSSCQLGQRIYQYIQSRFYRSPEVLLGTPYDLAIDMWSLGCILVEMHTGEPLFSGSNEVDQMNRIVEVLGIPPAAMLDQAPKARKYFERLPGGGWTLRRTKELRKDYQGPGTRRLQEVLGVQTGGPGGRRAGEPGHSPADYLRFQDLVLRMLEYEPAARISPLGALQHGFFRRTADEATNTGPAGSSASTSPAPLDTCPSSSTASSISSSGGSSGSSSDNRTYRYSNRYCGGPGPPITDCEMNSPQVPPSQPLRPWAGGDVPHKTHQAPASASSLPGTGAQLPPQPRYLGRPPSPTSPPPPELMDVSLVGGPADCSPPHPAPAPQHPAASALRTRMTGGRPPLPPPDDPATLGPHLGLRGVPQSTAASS
UniProt P21860, whole entry: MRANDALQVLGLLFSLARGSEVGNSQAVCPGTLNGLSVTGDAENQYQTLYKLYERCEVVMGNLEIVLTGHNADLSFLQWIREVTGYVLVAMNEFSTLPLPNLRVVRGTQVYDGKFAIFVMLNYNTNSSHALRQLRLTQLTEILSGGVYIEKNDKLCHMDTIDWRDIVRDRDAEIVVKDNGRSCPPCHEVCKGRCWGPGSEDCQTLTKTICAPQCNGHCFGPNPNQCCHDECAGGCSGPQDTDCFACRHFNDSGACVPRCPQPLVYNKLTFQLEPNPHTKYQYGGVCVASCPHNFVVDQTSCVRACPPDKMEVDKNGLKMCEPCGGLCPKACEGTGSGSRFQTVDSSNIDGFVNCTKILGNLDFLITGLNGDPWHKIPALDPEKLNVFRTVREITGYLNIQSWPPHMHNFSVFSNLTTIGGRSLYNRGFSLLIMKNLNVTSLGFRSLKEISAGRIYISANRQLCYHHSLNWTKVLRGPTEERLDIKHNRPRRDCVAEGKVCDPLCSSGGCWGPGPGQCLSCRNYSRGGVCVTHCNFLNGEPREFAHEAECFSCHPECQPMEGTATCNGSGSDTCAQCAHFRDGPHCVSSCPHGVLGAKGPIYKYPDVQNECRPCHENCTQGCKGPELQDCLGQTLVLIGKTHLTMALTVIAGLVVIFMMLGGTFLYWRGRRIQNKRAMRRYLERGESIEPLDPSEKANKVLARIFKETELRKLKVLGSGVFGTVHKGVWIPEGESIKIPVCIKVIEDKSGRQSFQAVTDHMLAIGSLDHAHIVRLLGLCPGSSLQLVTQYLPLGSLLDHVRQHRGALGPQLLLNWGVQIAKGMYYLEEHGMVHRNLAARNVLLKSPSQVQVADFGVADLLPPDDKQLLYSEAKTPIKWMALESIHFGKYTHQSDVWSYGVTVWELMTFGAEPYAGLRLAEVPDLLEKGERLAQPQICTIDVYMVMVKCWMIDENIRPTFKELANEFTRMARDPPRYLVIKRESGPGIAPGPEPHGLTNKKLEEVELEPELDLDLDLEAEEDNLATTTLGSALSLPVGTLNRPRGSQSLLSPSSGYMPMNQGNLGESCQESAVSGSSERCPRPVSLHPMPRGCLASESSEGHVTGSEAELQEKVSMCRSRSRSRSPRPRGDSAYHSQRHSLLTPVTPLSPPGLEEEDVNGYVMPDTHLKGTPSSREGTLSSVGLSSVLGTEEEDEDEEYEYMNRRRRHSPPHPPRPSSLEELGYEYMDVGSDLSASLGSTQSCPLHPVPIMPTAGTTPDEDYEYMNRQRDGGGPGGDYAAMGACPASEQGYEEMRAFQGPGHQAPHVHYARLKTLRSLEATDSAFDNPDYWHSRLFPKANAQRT
UniProt O75460: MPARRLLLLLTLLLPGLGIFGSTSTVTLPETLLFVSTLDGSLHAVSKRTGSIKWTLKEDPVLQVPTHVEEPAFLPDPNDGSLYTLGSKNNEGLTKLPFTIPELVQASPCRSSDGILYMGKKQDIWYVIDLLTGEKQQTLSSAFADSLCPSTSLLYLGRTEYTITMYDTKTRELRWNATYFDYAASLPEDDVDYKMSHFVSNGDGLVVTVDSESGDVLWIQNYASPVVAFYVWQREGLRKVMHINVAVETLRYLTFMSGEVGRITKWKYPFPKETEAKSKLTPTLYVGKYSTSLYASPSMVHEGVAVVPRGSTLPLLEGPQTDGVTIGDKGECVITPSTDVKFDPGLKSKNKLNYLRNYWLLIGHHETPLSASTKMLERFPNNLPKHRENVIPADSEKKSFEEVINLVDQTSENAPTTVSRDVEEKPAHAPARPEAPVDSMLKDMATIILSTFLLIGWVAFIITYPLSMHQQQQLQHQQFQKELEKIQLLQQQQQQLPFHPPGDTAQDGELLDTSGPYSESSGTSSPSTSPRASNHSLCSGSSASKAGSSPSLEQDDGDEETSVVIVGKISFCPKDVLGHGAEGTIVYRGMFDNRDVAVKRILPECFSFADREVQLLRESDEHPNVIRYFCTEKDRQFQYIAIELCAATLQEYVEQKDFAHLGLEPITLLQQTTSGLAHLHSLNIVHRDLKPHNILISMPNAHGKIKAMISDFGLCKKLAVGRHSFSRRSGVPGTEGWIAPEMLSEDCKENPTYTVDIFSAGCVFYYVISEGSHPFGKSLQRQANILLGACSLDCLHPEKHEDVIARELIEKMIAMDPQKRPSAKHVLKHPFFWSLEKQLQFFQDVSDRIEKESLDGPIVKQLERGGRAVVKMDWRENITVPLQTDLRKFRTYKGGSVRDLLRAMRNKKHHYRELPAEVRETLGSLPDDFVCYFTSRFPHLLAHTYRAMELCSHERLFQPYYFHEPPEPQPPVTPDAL
UniProt P11362, whole entry, looked up: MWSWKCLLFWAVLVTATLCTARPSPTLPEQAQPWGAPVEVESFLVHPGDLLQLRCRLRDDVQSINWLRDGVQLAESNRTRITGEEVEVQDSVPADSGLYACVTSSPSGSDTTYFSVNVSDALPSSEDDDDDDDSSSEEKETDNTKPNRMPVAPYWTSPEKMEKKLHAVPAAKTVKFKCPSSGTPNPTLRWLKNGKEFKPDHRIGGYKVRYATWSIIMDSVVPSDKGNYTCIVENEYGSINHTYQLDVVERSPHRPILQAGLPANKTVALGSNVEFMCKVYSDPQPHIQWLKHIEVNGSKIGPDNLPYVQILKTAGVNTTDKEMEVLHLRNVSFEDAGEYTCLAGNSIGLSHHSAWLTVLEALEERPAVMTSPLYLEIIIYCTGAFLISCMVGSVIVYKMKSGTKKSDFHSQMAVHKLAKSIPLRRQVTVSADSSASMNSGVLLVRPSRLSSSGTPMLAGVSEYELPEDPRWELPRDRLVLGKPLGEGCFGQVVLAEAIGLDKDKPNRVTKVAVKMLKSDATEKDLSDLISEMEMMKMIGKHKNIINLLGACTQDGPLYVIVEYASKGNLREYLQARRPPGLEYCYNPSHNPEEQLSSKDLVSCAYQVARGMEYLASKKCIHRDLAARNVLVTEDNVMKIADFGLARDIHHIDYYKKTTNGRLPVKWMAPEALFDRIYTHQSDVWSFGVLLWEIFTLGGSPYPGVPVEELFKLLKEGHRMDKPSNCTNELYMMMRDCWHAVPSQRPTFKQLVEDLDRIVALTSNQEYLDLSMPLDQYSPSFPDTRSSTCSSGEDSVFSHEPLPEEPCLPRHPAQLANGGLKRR
UniProt P22607, whole entry, looked up: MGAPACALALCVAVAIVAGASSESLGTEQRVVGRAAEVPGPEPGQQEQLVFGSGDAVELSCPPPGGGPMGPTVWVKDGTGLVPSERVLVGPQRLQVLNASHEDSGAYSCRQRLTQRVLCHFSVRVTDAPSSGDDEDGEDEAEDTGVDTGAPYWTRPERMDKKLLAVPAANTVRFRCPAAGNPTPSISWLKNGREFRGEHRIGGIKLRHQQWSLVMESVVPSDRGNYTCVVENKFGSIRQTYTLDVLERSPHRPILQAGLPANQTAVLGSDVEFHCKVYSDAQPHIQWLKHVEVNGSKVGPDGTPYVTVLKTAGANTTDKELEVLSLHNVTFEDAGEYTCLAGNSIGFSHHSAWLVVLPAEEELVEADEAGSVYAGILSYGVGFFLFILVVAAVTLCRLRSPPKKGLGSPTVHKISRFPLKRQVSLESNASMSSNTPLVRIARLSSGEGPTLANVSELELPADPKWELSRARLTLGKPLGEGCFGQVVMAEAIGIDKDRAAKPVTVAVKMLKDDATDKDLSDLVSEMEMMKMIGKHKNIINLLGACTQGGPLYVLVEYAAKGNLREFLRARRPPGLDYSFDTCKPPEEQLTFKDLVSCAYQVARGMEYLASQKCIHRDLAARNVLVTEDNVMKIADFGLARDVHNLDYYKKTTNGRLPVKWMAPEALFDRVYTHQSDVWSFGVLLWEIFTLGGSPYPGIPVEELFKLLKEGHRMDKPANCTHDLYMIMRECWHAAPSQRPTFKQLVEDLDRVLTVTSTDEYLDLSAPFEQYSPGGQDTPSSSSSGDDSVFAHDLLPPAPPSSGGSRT

Columns and labels:
Assay in all cases: number of time points (of 5) at which kinase-Nluc abundance scored as decreased, DMSO-normalised (count); higher = more persistent destabilization
Conditions in all cases: K562; 2-18 h
CSNK1A1 = CSNK1A1 (UniProt P48729)
CSNK1D = CSNK1D (UniProt P48730)
DDR1 = DDR1 (UniProt Q08345)
DYRK1B = DYRK1B (UniProt Q9Y463)
DYRK2 = DYRK2 (UniProt Q92630)
EGFR = EGFR (UniProt P00533)
EGFR_G719S = EGFR_G719S (UniProt P00533)
EGFR_G719S_T790M = EGFR_G719S_T790M (UniProt P00533)
EGFR_L718V = EGFR_L718V (UniProt P00533)
EGFR_L858R = EGFR_L858R (UniProt P00533)
EGFR_L861Q = EGFR_L861Q (UniProt P00533)
EGFR_T790M = EGFR_T790M (UniProt P00533)
EPHA2 = EPHA2 (UniProt P29317)
ERBB3 = ERBB3 (UniProt P21860)
[1] = biological target: ERBB4_R711C (clone: ERBB4_mut) (UniProt Q15303)
ERN1 = ERN1 (UniProt O75460)
FGFR1 = FGFR1 (UniProt P11362)
FGFR2 = FGFR2 (UniProt P21802)
FGFR3 = FGFR3 (UniProt P22607)
FGR = FGR (UniProt P09769)

Measured: number of time points

Cn1cc(-c2nc(N[C@@H]3CCCC[C@@H]3N)c(F)c3c2C(=O)NC3)cn1 [TAK-659 (hydrochloride)] (2 µM)
0: all assays above

COc1cc2nc(-c3cc(F)ccc3O)nc(N[C@@H]3CNC[C@H]3C(C)(C)O)c2cc1OC (2.5 µM)
0: all assays above

COc1cc2nnc(C(N)=O)c(Nc3ccc(C)cc3F)c2cc1N1CCN(CCO)CC1 (2.5 µM)
0: all assays above

CC(C1CC1)n1cnc2c(NCc3cccc(C(F)(F)F)c3)nc(NCCN(C)C)nc21 (stereo not given) (10 µM)
0: all assays above

CCc1cc(Nc2nccc(-c3c(-c4ccc(OC)c(C(=O)Nc5c(F)cccc5F)c4)nc4ccccn34)n2)c(OC)cc1N1CCC(N2CCN(S(C)(=O)=O)CC2)CC1 (2.5 µM)
0: all assays above

C[C@H](Nc1cc2c(-c3ccc4c(c3)OCO4)noc2cn1)c1ccccc1 (10 µM)
0: all assays above

CNc1cc2c(Nc3cccc(Br)c3)ncnc2cn1 (10 µM)
1: ERN1
0: all other assays above

O=C(CCl)c1c[nH]c2ccccc12 (2.5 µM)
0: all assays above

Cc1ccc2c(NS(=O)(=O)c3ccccc3Cl)cccc2c1Oc1ncccc1-c1ccnc(N[C@H]2CCCNC2)n1 (2.5 µM)
0: all assays above

O=C(O)c1c[nH]c2cc(Cl)c(-c3ccc(C4(O)CCC4)cc3)cc12 (10 µM)
0: all assays above

CCOC(=O)c1c(N2CCc3ccc(OC)cc3C2)oc(C=C2C=Nc3ncccc32)c1O (10 µM)
0: all assays above

O=CN1CCN(c2ccc(C=C3C(=O)Nc4ccccc43)cc2)CC1 (10 µM)
0: all assays above

NC(=O)c1ccccc1Nc1ccnc(Nc2cccc(O)c2)n1 (10 µM)
4: DDR1 | DYRK2 | [1]
2: EGFR_L861Q
3: ERBB3 | FGFR2
1: EGFR_L858R
0: all other assays above

O=[N+]([O-])c1ccc(-c2nc(-c3ccc(F)cc3)c(-c3ccncc3)[nH]2)cc1 (10 µM)
5: CSNK1A1
3: EGFR
0: all other assays above

CC(C)n1cnc2c(Nc3cccc(Cl)c3)nc(N[C@H]3CCCC[C@@H]3N)nc21 (2.5 µM)
0: all assays above

CC(=O)Nc1nc(C)c(-c2cc(C)c3c(c2)CN([C@@H](C)C2CC2)C3=O)s1 (10 µM)
0: all assays above

C[C@@H]1COC(Nc2ccc3ncnc(Nc4ccc(OCc5nccs5)c(Cl)c4)c3c2)=N1 [Varlitinib] (10 µM)
1: DYRK1B
0: all other assays above

CN1C(=O)[C@@H](NC(=O)c2cc(Cc3ccccc3)on2)COc2ccccc21 (10 µM)
0: all assays above

CCn1c(N)c(C(=O)NC)c(=O)c2ccc(C#CC(C)(O)COC)nc21 (stereo not given) (10 µM)
0: all assays above

Not a retest: two of the compounds above.
CN1C(=O)[C@@H](NC(=O)c2cc(Cc3ccccc3)on2)COc2ccccc21 (10 µM)
0: all assays above

CCn1c(N)c(C(=O)NC)c(=O)c2ccc(C#CC(C)(O)COC)nc21 (stereo not given) (10 µM)
0: all assays above

The list continues:

COc1cc2nc(NC3CC3)nc(NC3CCN(C(C)C)CC3)c2cc1OC (10 µM)
2: DYRK2 | FGFR2
0: all other assays above

CS(=O)(=O)c1ccc([C@@H](CC2CCCC2)C(=O)Nc2nccs2)cc1 (10 µM)
0: all assays above

Cc1ncc(-c2cc(F)c(O)c(F)c2)cc1-c1cc(F)c(O)c(F)c1 (10 µM)
0: all assays above

CN1CCN(Cc2ccc(-c3cn(C4CCC(O)CC4)c4nc(NCCC5CC5)ncc34)cc2)CC1 (stereo not given) (2.5 µM)
3: DDR1
2: EGFR_G719S | EGFR_L861Q | FGFR2
1: EGFR_G719S_T790M | EPHA2
4: DYRK2
0: all other assays above

Cc1cnc(Cl)nc1-c1ccc(N(Cc2ccc(CNC(=O)C(F)F)cc2)C(=O)c2ccc(O)cc2O)cc1 (10 µM)
0: all assays above

COc1ccc(CN2CCC(c3ccc4nc(C(=O)N5CCN(Cc6ccc(C(F)(F)F)cc6)CC5)[nH]c4c3)CC2)cn1 (2.5 µM)
1: EGFR_G719S_T790M
2: DDR1 | DYRK2 | ERBB3
0: all other assays above

NCCNS(=O)(=O)c1ccc(Cl)c2ccncc12 [CKI-7 (free base)] (10 µM)
0: all assays above

Cc1n[nH]c2ncc(C(=O)N3CCC[C@H]3c3ccc(Cl)cc3)cc12 (10 µM)
0: all assays above

NC(=O)c1sc2c([N+](=O)[O-])cc(C(F)(F)F)cc2[n+]1[O-] [Cyclapolin 9] (10 µM)
0: all assays above

Nc1ccc(Sc2nc3ccccc3s2)c(Cl)c1 [KRAS inhibitor-9] (10 µM)
0: all assays above

CN1C(=O)N[C@@H](Cc2c[nH]c3c(Cl)cccc23)C1=O [Necrostatin 2 (S enantiomer)] (10 µM)
0: all assays above

Cc1ccc(C2CC(=O)NC(SCC(=O)Nc3nccs3)=C2C#N)cc1 (stereo not given) [Necrostatin-34] (10 µM)
0: all assays above

S=C(NCc1ccc2c(c1)OCO2)N1CCN(c2ncnc3c2oc2ccccc23)CC1 [Amuvatinib] (2.5 µM)
0: all assays above

Cc1cc(N2CCOCC2)ccc1Nc1nc(NC2CCCCC2)c2[nH]cnc2n1 (10 µM)
0: all assays above

COc1ccc2cc1Oc1ccc(cc1)C[C@H]1c3cc(c(OC)cc3CCN1C)Oc1c(O)c(OC)cc3c1[C@H](C2)N(C)CC3 [Fangchinoline] (2.5 µM)
0: all assays above

CC1(C)CN(C(=O)c2ccc(-c3cccc4nc(NC(=O)C5CC5)nn34)cc2)C1 [Solcitinib] (10 µM)
0: all assays above

CN1CCC(Nc2ccc(C(=O)Nc3cc(-c4ccc5c(c4)OCO5)[nH]n3)cc2)CC1 (10 µM)
1: DDR1
3: [1]
4: DYRK2
0: all other assays above

Nc1ccc(-c2nc3ccc(-c4nc5ccc(N)cc5[nH]4)cc3[nH]2)cc1 (10 µM)
0: all assays above

Cc1cccc(-c2nn3c(c2-c2ccnc4ccc(C(N)=O)cc24)CCC3)n1 [Galunisertib] (10 µM)
0: all assays above

COC(=O)N1CCN(C2CCC(Nc3nc(Nc4cnn(C)c4)nc4ccc(CC#N)nc34)CC2)CC1 (stereo not given) (10 µM)
0: all assays above

COc1ccc(-c2cc(=O)c3c(O)cc(O)cc3o2)cc1-c1c(O)cc(O)c2c(=O)cc(-c3ccc(O)cc3)oc12 [Bilobetin] (2.5 µM)
2: EGFR_G719S_T790M
0: all other assays above

Cc1nc2c(NCc3cccc(S(C)(=O)=O)c3)nccn2c1-c1ccc(O)c(F)c1 (10 µM)
0: all assays above

CNC(=O)CN1CCC(Oc2cc3c(Nc4cccc(Cl)c4F)ncnc3cc2OC)CC1 [Sapitinib] (10 µM)
0: all assays above

Nc1[nH]nc2nnc(-c3c(-c4ccccc4)nn4ccccc34)cc12 (10 µM)
0: all assays above

COc1cc(N2CCC(O)CC2)ccc1Nc1nc(Nc2ccccc2S(=O)(=O)C(C)C)c2[nH]cnc2n1 (10 µM)
0: all assays above

CCOc1cc(=O)[nH]cc1-c1ccc(CC(=O)Nc2cc(C(C)(C)C(F)(F)F)on2)c(F)c1 (10 µM)
0: all assays above

CC1=C(C#N)C(c2ccc3[nH]nc(C)c3c2)C(C#N)=C(C)N1 (10 µM)
0: all assays above

COc1c(O)cc(O)c2c(=O)cc(-c3ccccc3)oc12 [Wogonin] (10 µM)
0: all assays above

Nc1ccc(-c2cccc(C(=O)Nc3cnc4nc(N5CCOCC5)oc4c3)n2)cn1 (10 µM)
5: EPHA2
0: all other assays above

CO/N=C1/C(c2c(O)[nH]c3cc(Cl)c(Cl)cc23)=Nc2ccccc21 (10 µM)
0: all assays above
